Results on 4 substances are retold here after publication PMC9444247.

Substitutions are numbered along the chain they refer to. Results are given in words; binding and its absence hold for the method and conditions named. Binding seen in cells or lysates may run through a third protein. Binding calls can cover weak binding; strength is not graded here. Where a sequence is shown, tags or fusion partners need not be part of it.

What all share (assay): co-IP; EGFP fusion (bait) expressed in HEK293T with the co-transfected or endogenous partner; lysis in 50 mM Tris-HCl pH 7.5, 150 mM NaCl, 1% Igepal CA-630; EGFP fusions immunoprecipitated with GFP-Trap magnetic agarose beads for 2 hr or overnight at 4 °C; Western blot
On the technique in general: Immunoblotting shows a protein as a band on a membrane.

Assay [1] has as its target T1, EGFP-INPP5E (1-283) (human) (UniProt Q9NRR6).
T1 sequence: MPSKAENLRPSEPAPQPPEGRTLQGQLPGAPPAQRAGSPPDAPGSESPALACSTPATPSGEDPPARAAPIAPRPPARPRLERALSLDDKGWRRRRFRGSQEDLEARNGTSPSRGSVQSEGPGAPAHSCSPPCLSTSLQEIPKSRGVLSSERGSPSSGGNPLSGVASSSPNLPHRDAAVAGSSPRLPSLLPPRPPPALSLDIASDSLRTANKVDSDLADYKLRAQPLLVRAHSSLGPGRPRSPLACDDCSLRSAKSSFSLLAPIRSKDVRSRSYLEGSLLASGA

For assay [2], the target named is T2, EGFP-INPP5E (251-644) (human) (UniProt Q9NRR6).
T2 sequence (chain, CaaX box cysteine C641 farnesylated in cells, as the paper says of INPP5E): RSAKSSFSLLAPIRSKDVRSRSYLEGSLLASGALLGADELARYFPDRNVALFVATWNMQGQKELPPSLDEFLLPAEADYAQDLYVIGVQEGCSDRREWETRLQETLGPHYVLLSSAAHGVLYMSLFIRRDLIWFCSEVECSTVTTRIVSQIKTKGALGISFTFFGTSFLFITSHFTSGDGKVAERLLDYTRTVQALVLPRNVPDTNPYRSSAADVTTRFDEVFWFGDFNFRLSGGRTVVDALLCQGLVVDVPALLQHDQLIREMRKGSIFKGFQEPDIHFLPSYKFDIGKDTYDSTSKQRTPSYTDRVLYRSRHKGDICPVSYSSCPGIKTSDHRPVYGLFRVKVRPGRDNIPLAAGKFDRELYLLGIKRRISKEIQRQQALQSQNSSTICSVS

Assay [3] deals with T3, EGFP-INPP5E (FDR609AAA) (human) (UniProt Q9NRR6).
T3 sequence (chain, CaaX box cysteine C641 farnesylated in cells, as the paper says of INPP5E): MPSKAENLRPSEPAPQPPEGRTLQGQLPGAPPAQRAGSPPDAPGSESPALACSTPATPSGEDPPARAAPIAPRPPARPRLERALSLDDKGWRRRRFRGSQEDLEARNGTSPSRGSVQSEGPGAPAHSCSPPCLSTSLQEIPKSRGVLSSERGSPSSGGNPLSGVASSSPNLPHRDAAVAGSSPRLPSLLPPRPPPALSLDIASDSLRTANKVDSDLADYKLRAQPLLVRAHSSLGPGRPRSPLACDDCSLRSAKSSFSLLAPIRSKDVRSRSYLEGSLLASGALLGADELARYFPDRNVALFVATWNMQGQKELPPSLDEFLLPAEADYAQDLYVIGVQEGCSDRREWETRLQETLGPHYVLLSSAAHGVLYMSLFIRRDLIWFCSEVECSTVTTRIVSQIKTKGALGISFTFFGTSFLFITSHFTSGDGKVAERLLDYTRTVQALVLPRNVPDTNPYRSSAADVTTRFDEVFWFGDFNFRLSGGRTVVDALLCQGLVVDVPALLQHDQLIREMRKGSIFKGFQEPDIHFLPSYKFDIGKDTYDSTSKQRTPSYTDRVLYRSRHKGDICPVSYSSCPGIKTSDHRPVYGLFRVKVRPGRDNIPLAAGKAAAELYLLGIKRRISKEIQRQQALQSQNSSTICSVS

Assay [4] deals with T4, EGFP-INPP5E (W383A) (human) (UniProt Q9NRR6).
T4 sequence (chain, CaaX box cysteine C641 farnesylated in cells, as the paper says of INPP5E): T3 sequence (chain, CaaX box cysteine C641 farnesylated in cells, as the paper says of INPP5E) with W383A, A609F, A610D, A611R

Take Flag-ATG16L1 (human): the binding entry in assay [1] was “binds weakly”; in assay [2], “binds”; in assay [3], “binds”; in assay [4], “binds”.
Turning to Flag-PDE6D (human), the binding entry in assay [1] was “no binding”; in assay [2], “binds”; in assay [3] it was “binds”; in assay [4], “binds”.
In the case of Flag-RPGR (human), the binding result in assay [1] is listed as “no binding”; in assay [2] it was “binds”; in assay [3] it was “binds”; in assay [4] it was “binds”.
Turning to TULP3-myc (human), the binding entry is “binds weakly” in assay [1], “binds” in assay [2], “binds weakly” in assay [3] and “binds weakly” in assay [4].
